The values that follow are results of earlier work, collected in US8846104B2, “Pharmaceutical compositions for the deterrence and/or prevention of abuse” (priority 2006, dated 2014).

Where a name gives a salt, the structure may show the parent alone.

Take `O=C1CC[C@@]2(O)[C@H]3Cc4ccc(O)c5c4[C@@]2(CCN3CC2CC2)[C@H]1O5` [hydrochloride salt of naltrexone, naltrexone]: the soluble in water entry was “about 100 mg/cc”.
